# The supplement of paper PMC8728848
# The list shows a part of the results.
# B1: EULS2 M3 (Oryza sativa) (protein)
# chain: MVYCRANPNYAMTARNGAVVLAPANPKDEYQHWIKDMRWSTSIKDEEGYPAFALVNKATGQAIKHSLGQSHPVRLVPYNPEVMDESVLWTESRDVGNGFRCIRMVNNIYLNFDAFHGDKYHGGVRDGTDIVLWKLCEGDSLRWKIQPYYILEQKLISEEDLNSAVDHHHHHH
# Columns and labels:
# Experiment in all cases: glycan array binding signal (z-score within array); higher = stronger binding
# Conditions in all cases: glycan notation: IUPAC condensed, linker removed
# Neu5Ac(a2-3)GalNAc = biological target: Neu5Ac(a2-3)GalNAc
# Summary of the method: (§1)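 Negative Z-scores can be read as non-binding. The Z-score is calculated within each array and then averaged across arrays of one protein sequence at different concentrations or buffers and across linkers. Arrays, 3228 in all, were curated from the Consortium for Functional Glycomics database and kept only where the protein sequence was available.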
# [1] = biological target: Neu5Ac(a2-3)GalNAc(b1-4)GlcNAc
# Summary of the method: as §1
# [2] = biological target: Neu5Ac(a2-3)[GalNAc(b1-4)]Gal(b1-4)Glc
# Summary of the method: as §1
# [3] = biological target: Neu5Ac(a2-3)[GalNAc(b1-4)]Gal(b1-4)GlcNAc
# Summary of the method: as §1
# [4] = biological target: Neu5Ac(a2-3)[GalNAc(b1-4)]Gal(b1-4)GlcNAc(b1-3)GalNAc
# Summary of the method: as §1
# [5] = biological target: Neu5Ac(a2-3)[Neu5Ac(a2-6)]GalNAc
# Summary of the method: as §1
# Neu5Ac(a2-6)Gal = biological target: Neu5Ac(a2-6)Gal
# Summary of the method: as §1
# [6] = biological target: Neu5Ac(a2-6)Gal(b1-3)GlcNAc(b1-3)[Gal(b1-4)GlcNAc(b1-6)]Gal(b1-4)Glc
# Summary of the method: as §1
# Neu5Ac(a2-6)Gal(b1-4)Glc = biological target: Neu5Ac(a2-6)Gal(b1-4)Glc
# Summary of the method: as §1
# [7] = biological target: Neu5Ac(a2-6)Gal(b1-4)GlcNAc
# Summary of the method: as §1
# [8] = biological target: Neu5Ac(a2-6)Gal(b1-4)GlcNAc(b1-2)Man
# Summary of the method: as §1
# [9] = biological target: Neu5Ac(a2-6)Gal(b1-4)GlcNAc(b1-2)Man(a1-3)Man(b1-4)GlcNAc(b1-4)GlcNAc
# Summary of the method: as §1
# [10] = biological target: Neu5Ac(a2-6)Gal(b1-4)GlcNAc(b1-2)Man(a1-3)[Gal(b1-4)GlcNAc(b1-2)Man(a1-6)]Man(b1-4)GlcNAc(b1-4)GlcNAc
# Summary of the method: as §1
# [11] = biological target: Neu5Ac(a2-6)Gal(b1-4)GlcNAc(b1-2)Man(a1-3)[GlcNAc(b1-2)Man(a1-6)]Man(b1-4)GlcNAc(b1-4)GlcNAc
# Summary of the method: as §1
# [12] = biological target: Neu5Ac(a2-6)Gal(b1-4)GlcNAc(b1-2)Man(a1-3)[GlcNAc(b1-4)][Neu5Ac(a2-6)Gal(b1-4)GlcNAc(b1-2)Man(a1-6)]Man(b1-4)GlcNAc(b1-4)GlcNAc
# Summary of the method: as §1
# [13] = biological target: Neu5Ac(a2-6)Gal(b1-4)GlcNAc(b1-2)Man(a1-3)[Man(a1-6)]Man(b1-4)GlcNAc(b1-4)GlcNAc
# Summary of the method: as §1
# [14] = biological target: Neu5Ac(a2-6)Gal(b1-4)GlcNAc(b1-2)Man(a1-3)[Neu5Ac(a2-3)Gal(b1-4)GlcNAc(b1-2)Man(a1-6)]Man(b1-4)GlcNAc(b1-4)GlcNAc
# Summary of the method: as §1
# [15] = biological target: Neu5Ac(a2-6)Gal(b1-4)GlcNAc(b1-2)Man(a1-3)[Neu5Ac(a2-6)Gal(b1-4)GlcNAc(b1-2)Man(a1-6)]Man(b1-4)GlcNAc(b1-4)GlcNAc
# Summary of the method: as §1
# [16] = biological target: Neu5Ac(a2-6)Gal(b1-4)GlcNAc(b1-2)Man(a1-3)[Neu5Ac(a2-6)Gal(b1-4)GlcNAc(b1-2)Man(a1-6)]Man(b1-4)GlcNAc(b1-4)[Fuc(a1-6)]GlcNAc
# Summary of the method: as §1
# [17] = biological target: Neu5Ac(a2-6)Gal(b1-4)GlcNAc(b1-2)Man(a1-6)Man(b1-4)GlcNAc(b1-4)GlcNAc
# Summary of the method: as §1
# [18] = biological target: Neu5Ac(a2-6)Gal(b1-4)GlcNAc(b1-2)Man(a1-6)[Gal(b1-4)GlcNAc(b1-2)Man(a1-3)]Man(b1-4)GlcNAc(b1-4)GlcNAc
# Summary of the method: as §1
# [19] = biological target: Neu5Ac(a2-6)Gal(b1-4)GlcNAc(b1-2)Man(a1-6)[GlcNAc(b1-2)Man(a1-3)]Man(b1-4)GlcNAc(b1-4)GlcNAc
# Summary of the method: as §1
# [20] = biological target: Neu5Ac(a2-6)Gal(b1-4)GlcNAc(b1-2)Man(a1-6)[Man(a1-3)]Man(b1-4)GlcNAc(b1-4)GlcNAc
# Summary of the method: as §1
# [21] = biological target: Neu5Ac(a2-6)Gal(b1-4)GlcNAc(b1-2)[Neu5Ac(a2-6)Gal(b1-4)GlcNAc(b1-4)]Man(a1-3)[GlcNAc(b1-4)][Neu5Ac(a2-6)Gal(b1-4)GlcNAc(b1-2)[Neu5Ac(a2-6)Gal(b1-4)GlcNAc(b1-6)]Man(a1-6)]Man(b1-4)GlcNAc(b1-4)GlcNAc
# Summary of the method: as §1
# [22] = biological target: Neu5Ac(a2-6)Gal(b1-4)GlcNAc(b1-2)[Neu5Ac(a2-6)Gal(b1-4)GlcNAc(b1-4)]Man(a1-3)[GlcNAc(b1-4)][Neu5Ac(a2-6)Gal(b1-4)GlcNAc(b1-4)Man(a1-6)]Man(b1-4)GlcNAc(b1-4)GlcNAc
# Summary of the method: as §1
# [23] = biological target: Neu5Ac(a2-6)Gal(b1-4)GlcNAc(b1-2)[Neu5Ac(a2-6)Gal(b1-4)GlcNAc(b1-6)]Man(a1-6)[Neu5Ac(a2-6)Gal(b1-4)GlcNAc(b1-2)Man(a1-3)][GlcNAc(b1-4)]Man(b1-4)GlcNAc(b1-4)GlcNAc
# Summary of the method: as §1
# [24] = biological target: Neu5Ac(a2-6)Gal(b1-4)GlcNAc(b1-3)Gal(b1-3)GlcNAc
# Summary of the method: as §1
# [25] = biological target: Neu5Ac(a2-6)Gal(b1-4)GlcNAc(b1-3)Gal(b1-4)GlcNAc
# Summary of the method: as §1
# [26] = biological target: Neu5Ac(a2-6)Gal(b1-4)GlcNAc(b1-3)Gal(b1-4)GlcNAc(b1-2)Man(a1-3)[Neu5Ac(a2-6)Gal(b1-4)GlcNAc(b1-3)Gal(b1-4)GlcNAc(b1-2)Man(a1-6)]GalNAc
# Summary of the method: as §1
# [27] = biological target: Neu5Ac(a2-6)Gal(b1-4)GlcNAc(b1-3)Gal(b1-4)GlcNAc(b1-3)Gal(b1-4)GlcNAc
# Summary of the method: as §1
# [28] = biological target: Neu5Ac(a2-6)Gal(b1-4)GlcNAc(b1-3)Gal(b1-4)GlcNAc(b1-3)Gal(b1-4)GlcNAc(b1-2)Man(a1-3)[Neu5Ac(a2-6)Gal(b1-4)GlcNAc(b1-3)Gal(b1-4)GlcNAc(b1-3)Gal(b1-4)GlcNAc(b1-2)Man(a1-6)]GalNAc
# Summary of the method: as §1
# [29] = biological target: Neu5Ac(a2-6)Gal(b1-4)GlcNAc(b1-3)Gal(b1-4)GlcNAc(b1-3)GalNAc
# Summary of the method: as §1
# [30] = biological target: Neu5Ac(a2-6)Gal(b1-4)GlcNAc(b1-3)Gal(b1-4)GlcNAc(b1-3)[Neu5Ac(a2-6)Gal(b1-4)GlcNAc(b1-3)Gal(b1-4)GlcNAc(b1-6)]GalNAc
# Summary of the method: as §1
# [31] = biological target: Neu5Ac(a2-6)Gal(b1-4)GlcNAc(b1-3)Gal(b1-4)GlcNAc(b1-6)[Gal(b1-3)]GalNAc
# Summary of the method: as §1
# [32] = biological target: Neu5Ac(a2-6)Gal(b1-4)GlcNAc(b1-3)Gal(b1-4)[Fuc(a1-3)]GlcNAc(b1-3)Gal(b1-4)[Fuc(a1-3)]GlcNAc
# Summary of the method: as §1
# [33] = biological target: Neu5Ac(a2-6)Gal(b1-4)GlcNAc(b1-3)GalNAc
# Summary of the method: as §1
# [34] = biological target: Neu5Ac(a2-6)Gal(b1-4)GlcNAc(b1-3)[Neu5Ac(a2-6)Gal(b1-4)GlcNAc(b1-6)]GalNAc
# Summary of the method: as §1
# [35] = biological target: Neu5Ac(a2-6)Gal(b1-4)GlcNAc(b1-6)GalNAc
# Summary of the method: as §1
# [36] = biological target: Neu5Ac(a2-6)Gal(b1-4)GlcNAc(b1-6)[Gal(b1-3)GlcNAc(b1-3)]Gal(b1-4)Glc
# Summary of the method: as §1
# [37] = biological target: Neu5Ac(a2-6)Gal(b1-4)GlcNAc(b1-6)[Gal(b1-3)]GalNAc
# Summary of the method: as §1
# [38] = biological target: Neu5Ac(a2-6)Gal(b1-4)GlcNAc6S
# Summary of the method: as §1
# Neu5Ac(a2-6)GalNAc = biological target: Neu5Ac(a2-6)GalNAc
# Summary of the method: as §1
# [39] = biological target: Neu5Ac(a2-6)GalNAc(b1-4)GlcNAc
# Summary of the method: as §1
# [40] = biological target: Neu5Ac(a2-6)GalNAc(b1-4)GlcNAc6S
# Summary of the method: as §1
# [41] = biological target: Neu5Ac(a2-6)GlcNAc(b1-4)GlcNAc
# Summary of the method: as §1
binder,measurement,setting,value
B1,glycan array binding signal (z-score),Neu5Ac(a2-3)GalNAc,-0.085
same,glycan array binding signal (z-score),[1],-0.054
same,glycan array binding signal (z-score),[2],-0.273
same,glycan array binding signal (z-score),[3],-0.121
same,glycan array binding signal (z-score),[4],0.143
same,glycan array binding signal (z-score),[5],-0.159
same,glycan array binding signal (z-score),Neu5Ac(a2-6)Gal,-0.482
same,glycan array binding signal (z-score),[6],-0.647
same,glycan array binding signal (z-score),Neu5Ac(a2-6)Gal(b1-4)Glc,-0.276
same,glycan array binding signal (z-score),[7],-1.1
same,glycan array binding signal (z-score),[8],-0.17
same,glycan array binding signal (z-score),[9],-0.302
same,glycan array binding signal (z-score),[10],-0.422
same,glycan array binding signal (z-score),[11],-0.195
same,glycan array binding signal (z-score),[12],-0.444
same,glycan array binding signal (z-score),[13],1.2
same,glycan array binding signal (z-score),[14],-0.391
same,glycan array binding signal (z-score),[15],-0.369
same,glycan array binding signal (z-score),[16],-0.007
same,glycan array binding signal (z-score),[17],-0.553
same,glycan array binding signal (z-score),[18],-0.636
same,glycan array binding signal (z-score),[19],-0.231
same,glycan array binding signal (z-score),[20],0.023
same,glycan array binding signal (z-score),[21],1.37
same,glycan array binding signal (z-score),[22],-0.673
same,glycan array binding signal (z-score),[23],0.124
same,glycan array binding signal (z-score),[24],-0.218
same,glycan array binding signal (z-score),[25],-0.96
same,glycan array binding signal (z-score),[26],0.359
same,glycan array binding signal (z-score),[27],-0.967
same,glycan array binding signal (z-score),[28],0.572
same,glycan array binding signal (z-score),[29],-0.002
same,glycan array binding signal (z-score),[30],0.406
same,glycan array binding signal (z-score),[31],-0.547
same,glycan array binding signal (z-score),[32],-0.324
same,glycan array binding signal (z-score),[33],-0.09
same,glycan array binding signal (z-score),[34],-0.424
same,glycan array binding signal (z-score),[35],0.157
same,glycan array binding signal (z-score),[36],-0.268
same,glycan array binding signal (z-score),[37],0.023
same,glycan array binding signal (z-score),[38],-0.561
same,glycan array binding signal (z-score),Neu5Ac(a2-6)GalNAc,-0.8
same,glycan array binding signal (z-score),[39],-0.731
same,glycan array binding signal (z-score),[40],0.59
same,glycan array binding signal (z-score),[41],0.433

# Fetched one by one from the list above, 2 records:
binder,measurement,setting,value
B1,glycan array binding signal (z-score),[36],-0.268
same,glycan array binding signal (z-score),[30],0.406
